Reference: PMC11405395 (The EMBO Journal, 2024)
Results are given in words; binding and its absence hold for the method and conditions named. Values belong to the molecule of their own block, whether it stands above or below them.

By UniProt entry, the sequences of proteins in these tests, tags left out. Where a name states a change or a piece, a line headed by the entry shows the natural chain unless it says otherwise.
UniProt P29469: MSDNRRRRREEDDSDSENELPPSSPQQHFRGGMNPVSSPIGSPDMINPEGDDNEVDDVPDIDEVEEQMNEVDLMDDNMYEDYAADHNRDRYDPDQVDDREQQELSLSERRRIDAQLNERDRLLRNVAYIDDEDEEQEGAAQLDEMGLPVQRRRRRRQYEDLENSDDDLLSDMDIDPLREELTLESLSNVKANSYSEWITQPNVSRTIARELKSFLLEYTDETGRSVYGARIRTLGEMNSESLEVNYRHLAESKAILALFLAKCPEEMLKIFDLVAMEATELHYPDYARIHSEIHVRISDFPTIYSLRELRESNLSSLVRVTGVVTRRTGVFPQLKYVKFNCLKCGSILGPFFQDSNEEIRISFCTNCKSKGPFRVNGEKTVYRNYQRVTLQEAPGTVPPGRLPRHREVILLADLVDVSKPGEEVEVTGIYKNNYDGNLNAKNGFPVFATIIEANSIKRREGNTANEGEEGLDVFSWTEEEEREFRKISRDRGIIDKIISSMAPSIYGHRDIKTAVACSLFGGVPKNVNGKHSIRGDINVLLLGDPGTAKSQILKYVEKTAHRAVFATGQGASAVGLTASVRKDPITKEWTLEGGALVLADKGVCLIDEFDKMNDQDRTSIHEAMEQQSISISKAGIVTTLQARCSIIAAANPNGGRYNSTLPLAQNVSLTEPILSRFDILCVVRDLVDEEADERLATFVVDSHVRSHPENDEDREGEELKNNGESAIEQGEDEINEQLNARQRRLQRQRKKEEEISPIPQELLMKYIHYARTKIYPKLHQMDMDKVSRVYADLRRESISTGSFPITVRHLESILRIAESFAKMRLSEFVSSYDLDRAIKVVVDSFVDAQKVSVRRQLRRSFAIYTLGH
UniProt P21951: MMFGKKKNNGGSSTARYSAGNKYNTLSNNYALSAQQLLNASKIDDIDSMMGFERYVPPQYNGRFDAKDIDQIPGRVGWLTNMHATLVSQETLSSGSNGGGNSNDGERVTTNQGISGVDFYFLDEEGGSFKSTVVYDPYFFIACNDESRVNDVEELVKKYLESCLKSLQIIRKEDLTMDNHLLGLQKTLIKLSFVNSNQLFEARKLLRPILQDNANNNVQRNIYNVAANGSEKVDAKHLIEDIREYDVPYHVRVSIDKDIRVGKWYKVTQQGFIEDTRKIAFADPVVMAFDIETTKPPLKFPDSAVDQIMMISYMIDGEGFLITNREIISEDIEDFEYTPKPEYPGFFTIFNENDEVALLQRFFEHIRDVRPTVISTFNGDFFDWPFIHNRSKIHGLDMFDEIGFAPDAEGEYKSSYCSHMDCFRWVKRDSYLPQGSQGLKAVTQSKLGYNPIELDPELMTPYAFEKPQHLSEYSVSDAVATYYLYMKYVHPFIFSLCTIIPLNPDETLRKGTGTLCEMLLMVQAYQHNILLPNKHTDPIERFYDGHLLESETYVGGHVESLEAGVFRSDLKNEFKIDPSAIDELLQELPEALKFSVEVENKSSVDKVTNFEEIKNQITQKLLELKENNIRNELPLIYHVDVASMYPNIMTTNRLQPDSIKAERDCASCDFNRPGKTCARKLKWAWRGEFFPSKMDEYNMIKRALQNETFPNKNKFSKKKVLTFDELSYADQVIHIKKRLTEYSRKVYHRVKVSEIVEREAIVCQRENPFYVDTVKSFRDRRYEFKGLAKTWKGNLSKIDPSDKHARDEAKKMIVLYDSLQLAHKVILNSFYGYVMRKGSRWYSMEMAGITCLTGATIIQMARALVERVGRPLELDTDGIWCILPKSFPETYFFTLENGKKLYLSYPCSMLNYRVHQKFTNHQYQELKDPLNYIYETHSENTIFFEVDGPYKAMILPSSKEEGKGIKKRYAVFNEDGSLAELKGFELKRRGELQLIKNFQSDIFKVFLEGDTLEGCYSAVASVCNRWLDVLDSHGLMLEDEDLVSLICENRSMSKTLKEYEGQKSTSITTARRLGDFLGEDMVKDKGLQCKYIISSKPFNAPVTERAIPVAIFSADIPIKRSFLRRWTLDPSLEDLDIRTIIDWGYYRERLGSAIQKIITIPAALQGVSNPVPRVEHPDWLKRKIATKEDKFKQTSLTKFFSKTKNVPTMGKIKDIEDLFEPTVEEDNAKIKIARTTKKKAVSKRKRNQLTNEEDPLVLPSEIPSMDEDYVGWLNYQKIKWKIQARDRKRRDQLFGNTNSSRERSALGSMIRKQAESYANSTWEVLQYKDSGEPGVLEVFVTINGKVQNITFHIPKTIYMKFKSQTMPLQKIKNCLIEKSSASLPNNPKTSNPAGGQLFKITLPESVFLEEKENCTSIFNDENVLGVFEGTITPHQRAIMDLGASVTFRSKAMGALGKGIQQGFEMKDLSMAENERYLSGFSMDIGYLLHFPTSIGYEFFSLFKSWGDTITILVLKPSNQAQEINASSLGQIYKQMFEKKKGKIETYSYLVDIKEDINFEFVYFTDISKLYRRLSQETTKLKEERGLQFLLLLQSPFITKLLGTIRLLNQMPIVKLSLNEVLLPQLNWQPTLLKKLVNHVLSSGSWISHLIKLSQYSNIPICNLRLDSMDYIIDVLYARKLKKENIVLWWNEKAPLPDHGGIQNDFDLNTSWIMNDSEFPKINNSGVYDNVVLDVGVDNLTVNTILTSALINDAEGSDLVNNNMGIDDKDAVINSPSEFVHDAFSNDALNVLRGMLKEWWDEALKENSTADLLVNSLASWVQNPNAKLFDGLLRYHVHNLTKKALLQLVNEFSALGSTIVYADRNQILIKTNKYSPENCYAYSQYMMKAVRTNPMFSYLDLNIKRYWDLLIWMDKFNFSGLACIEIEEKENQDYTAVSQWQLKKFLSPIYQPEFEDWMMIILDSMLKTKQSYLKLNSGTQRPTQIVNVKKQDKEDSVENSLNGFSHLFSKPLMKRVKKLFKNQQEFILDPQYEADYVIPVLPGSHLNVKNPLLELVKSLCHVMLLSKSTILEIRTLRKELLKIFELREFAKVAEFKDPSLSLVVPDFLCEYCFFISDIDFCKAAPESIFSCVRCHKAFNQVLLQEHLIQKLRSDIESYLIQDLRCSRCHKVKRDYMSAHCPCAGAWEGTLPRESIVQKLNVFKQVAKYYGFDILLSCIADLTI
UniProt P49736: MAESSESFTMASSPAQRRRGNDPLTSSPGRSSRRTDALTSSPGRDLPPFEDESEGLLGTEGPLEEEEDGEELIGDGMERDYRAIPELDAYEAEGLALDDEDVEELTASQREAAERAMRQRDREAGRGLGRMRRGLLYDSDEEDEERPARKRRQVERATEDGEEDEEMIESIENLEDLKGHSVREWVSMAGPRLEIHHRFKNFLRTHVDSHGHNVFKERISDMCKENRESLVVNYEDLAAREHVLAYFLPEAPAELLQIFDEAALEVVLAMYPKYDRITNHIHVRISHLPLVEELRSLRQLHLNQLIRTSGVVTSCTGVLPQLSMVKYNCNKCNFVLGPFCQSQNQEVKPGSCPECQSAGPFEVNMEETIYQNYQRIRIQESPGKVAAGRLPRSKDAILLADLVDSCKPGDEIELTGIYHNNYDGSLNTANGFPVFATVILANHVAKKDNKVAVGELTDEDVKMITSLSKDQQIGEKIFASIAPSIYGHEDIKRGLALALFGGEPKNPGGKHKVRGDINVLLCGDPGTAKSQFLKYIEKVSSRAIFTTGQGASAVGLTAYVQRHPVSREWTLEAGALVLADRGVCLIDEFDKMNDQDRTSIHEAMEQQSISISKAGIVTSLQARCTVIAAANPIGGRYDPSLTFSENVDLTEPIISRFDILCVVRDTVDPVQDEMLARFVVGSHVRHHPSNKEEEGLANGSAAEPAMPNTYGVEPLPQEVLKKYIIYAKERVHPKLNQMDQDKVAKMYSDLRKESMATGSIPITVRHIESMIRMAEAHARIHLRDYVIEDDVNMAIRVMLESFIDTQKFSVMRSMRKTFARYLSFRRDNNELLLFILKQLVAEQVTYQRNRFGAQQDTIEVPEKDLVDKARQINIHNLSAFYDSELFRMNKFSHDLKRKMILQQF

What was measured:
[1] = target: T1, Rrm3Δ86-110 (S. cerevisiae) (UniProt P38766); assay: co-IP; purified proteins mixed: 10 nM FLAG-Rrm3 with 15 nM Pol ε, 10 min on ice; anti-FLAG M2 magnetic beads; 25 mM Hepes-KOH pH 7.6, 400 mM KOAc, 0.02% NP-40-S, 0.1 mg/mL BSA, 1 mM DTT, 10 mM Mg(OAc)2; immunoblotting; both purified
T1 sequence: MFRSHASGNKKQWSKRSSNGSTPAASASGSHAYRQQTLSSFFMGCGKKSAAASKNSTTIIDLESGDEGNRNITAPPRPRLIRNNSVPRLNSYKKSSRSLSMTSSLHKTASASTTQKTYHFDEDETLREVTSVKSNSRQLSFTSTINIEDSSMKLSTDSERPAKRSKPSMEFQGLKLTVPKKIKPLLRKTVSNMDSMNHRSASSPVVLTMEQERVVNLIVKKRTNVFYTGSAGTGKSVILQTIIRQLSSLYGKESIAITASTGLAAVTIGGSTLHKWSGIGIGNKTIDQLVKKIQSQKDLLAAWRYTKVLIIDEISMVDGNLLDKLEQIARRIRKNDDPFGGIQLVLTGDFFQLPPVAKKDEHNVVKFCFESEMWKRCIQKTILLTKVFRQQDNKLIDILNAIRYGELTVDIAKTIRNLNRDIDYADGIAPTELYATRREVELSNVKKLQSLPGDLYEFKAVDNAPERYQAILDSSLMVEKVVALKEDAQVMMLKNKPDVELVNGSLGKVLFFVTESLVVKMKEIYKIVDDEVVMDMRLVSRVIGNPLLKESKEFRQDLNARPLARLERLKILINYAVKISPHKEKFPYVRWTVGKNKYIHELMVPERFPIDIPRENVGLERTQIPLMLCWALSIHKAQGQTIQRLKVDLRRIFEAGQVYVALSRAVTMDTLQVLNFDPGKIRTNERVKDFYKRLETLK

[2] = target: T2, RTEL1ΔR875-V881 (human) (UniProt Q9NZ71); assay: co-IP; purified proteins mixed: 10 nM RTEL1-FLAG with 15 nM hsCMG, 10 min on ice; anti-FLAG M2 magnetic beads; 25 mM Hepes-KOH pH 7.6, 100 mM KOAc, 0.02% NP-40-S, 0.1 mg/mL BSA, 1 mM DTT, 10 mM Mg(OAc)2; immunoblotting; both purified
T2 sequence: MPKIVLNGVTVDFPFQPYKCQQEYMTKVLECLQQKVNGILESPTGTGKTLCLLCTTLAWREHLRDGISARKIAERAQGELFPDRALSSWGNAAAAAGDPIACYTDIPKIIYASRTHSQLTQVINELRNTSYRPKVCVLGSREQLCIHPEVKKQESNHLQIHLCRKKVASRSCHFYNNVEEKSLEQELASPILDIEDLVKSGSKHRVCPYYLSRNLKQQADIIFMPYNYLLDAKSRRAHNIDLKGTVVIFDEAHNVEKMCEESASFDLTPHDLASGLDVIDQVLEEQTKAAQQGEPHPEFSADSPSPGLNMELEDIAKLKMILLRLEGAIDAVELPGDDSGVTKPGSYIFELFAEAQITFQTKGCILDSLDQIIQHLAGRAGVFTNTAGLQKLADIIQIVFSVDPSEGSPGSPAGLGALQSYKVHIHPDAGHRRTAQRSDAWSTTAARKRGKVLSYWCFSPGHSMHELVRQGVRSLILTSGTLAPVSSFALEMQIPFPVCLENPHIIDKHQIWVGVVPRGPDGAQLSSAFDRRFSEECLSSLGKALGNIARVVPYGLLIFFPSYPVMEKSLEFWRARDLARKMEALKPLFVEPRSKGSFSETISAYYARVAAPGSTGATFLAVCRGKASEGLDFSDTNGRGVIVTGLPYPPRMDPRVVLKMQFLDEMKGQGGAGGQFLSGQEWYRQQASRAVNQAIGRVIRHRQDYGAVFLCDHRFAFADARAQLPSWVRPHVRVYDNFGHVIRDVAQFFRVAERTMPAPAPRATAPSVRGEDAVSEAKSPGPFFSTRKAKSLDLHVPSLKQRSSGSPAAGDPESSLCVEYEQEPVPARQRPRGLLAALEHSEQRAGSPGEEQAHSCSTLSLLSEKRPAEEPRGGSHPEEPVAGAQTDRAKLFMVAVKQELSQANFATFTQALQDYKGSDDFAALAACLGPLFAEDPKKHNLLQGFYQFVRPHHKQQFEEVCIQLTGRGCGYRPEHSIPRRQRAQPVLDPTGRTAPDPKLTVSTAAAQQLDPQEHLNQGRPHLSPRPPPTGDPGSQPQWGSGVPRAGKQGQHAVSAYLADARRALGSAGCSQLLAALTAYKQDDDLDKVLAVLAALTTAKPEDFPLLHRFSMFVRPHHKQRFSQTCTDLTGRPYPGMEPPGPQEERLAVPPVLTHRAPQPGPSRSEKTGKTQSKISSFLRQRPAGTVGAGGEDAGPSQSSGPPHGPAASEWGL

[3] = target: CMGE (budding yeast CMG helicase, Cdc45-Mcm2-7-GINS, together with DNA polymerase ε) (S. cerevisiae) (UniProt P29469); assay: co-IP; purified proteins mixed: 1–10 nM Rrm3/Rrm3N-BacPif1/BacPif1 with 15 nM CMG and 30 nM Pol ε, 10 min on ice; anti-Sld5 beads, 30 min 4 °C; 25 mM Hepes-KOH pH 7.6, 400 mM KOAc, 0.02% NP-40-S, 0.1 mg/mL BSA, 1 mM DTT, 10 mM Mg(OAc)2; immunoblotting; both purified
[4] = target: CMGE (budding yeast CMG helicase, Cdc45-Mcm2-7-GINS, together with DNA polymerase ε) (S. cerevisiae) (UniProt P29469); assay: condition: 10-fold higher protein concentrations than for Rrm3; co-IP; purified proteins mixed: 1–10 nM Rrm3/Rrm3N-BacPif1/BacPif1 with 15 nM CMG and 30 nM Pol ε, 10 min on ice; anti-Sld5 beads, 30 min 4 °C; 25 mM Hepes-KOH pH 7.6, 400 mM KOAc, 0.02% NP-40-S, 0.1 mg/mL BSA, 1 mM DTT, 10 mM Mg(OAc)2; immunoblotting; both purified

Molecule: DNA polymerase ε (Pol2, Dpb2, Dpb3, Dpb4), S. cerevisiae (from UniProt P21951 1-2222; P24482 1-689; P27344 1-201; Q04603 1-196) (complex)
binding [1]: no binding (tested: 10 nM Rrm3, 15 nM Pol ε)

Molecule: Homo sapiens CMG helicase (CDC45-MCM2-7-GINS) (from UniProt P49736 1-904; P25205 1-808; P33991 1-863; P33992 1-734; Q14566 1-821; P33993 1-719; O75419 1-566; Q9BRT9 1-223; Q14691 1-196; Q9Y248 1-185; Q9BRX5 1-216) (complex)
binding [2]: no binding (tested: 10 nM RTEL1, 15 nM hsCMG)

B1: Rrm3Δ86-110 (enzyme, S. cerevisiae, UniProt P38766 1-723, looked up)
chain: MFRSHASGNKKQWSKRSSNGSTPAASASGSHAYRQQTLSSFFMGCGKKSAAASKNSTTIIDLESGDEGNRNITAPPRPRLIRNNSVPRLNSYKKSSRSLSMTSSLHKTASASTTQKTYHFDEDETLREVTSVKSNSRQLSFTSTINIEDSSMKLSTDSERPAKRSKPSMEFQGLKLTVPKKIKPLLRKTVSNMDSMNHRSASSPVVLTMEQERVVNLIVKKRTNVFYTGSAGTGKSVILQTIIRQLSSLYGKESIAITASTGLAAVTIGGSTLHKWSGIGIGNKTIDQLVKKIQSQKDLLAAWRYTKVLIIDEISMVDGNLLDKLEQIARRIRKNDDPFGGIQLVLTGDFFQLPPVAKKDEHNVVKFCFESEMWKRCIQKTILLTKVFRQQDNKLIDILNAIRYGELTVDIAKTIRNLNRDIDYADGIAPTELYATRREVELSNVKKLQSLPGDLYEFKAVDNAPERYQAILDSSLMVEKVVALKEDAQVMMLKNKPDVELVNGSLGKVLFFVTESLVVKMKEIYKIVDDEVVMDMRLVSRVIGNPLLKESKEFRQDLNARPLARLERLKILINYAVKISPHKEKFPYVRWTVGKNKYIHELMVPERFPIDIPRENVGLERTQIPLMLCWALSIHKAQGQTIQRLKVDLRRIFEAGQVYVALSRAVTMDTLQVLNFDPGKIRTNERVKDFYKRLETLK
notes: Plasmid pOO14; also called 3FLAG-TEV RRM3-∆86-110; source: S. cerevisiae strain yOO7, purified (anti-FLAG M2 resin, HiTrap heparin); not shown: 3FLAG, N-terminal, kept
binding [3]: no binding

binding [4]: no binding
B2: Rrm3ΔN (Rrm3 lacking the first 193 amino acids) (domain or fragment, UniProt P38766 194-723)
chain: MEFQGLKLTVPKKIKPLLRKTVSNMDSMNHRSASSPVVLTMEQERVVNLIVKKRTNVFYTGSAGTGKSVILQTIIRQLSSLYGKESIAITASTGLAAVTIGGSTLHKWSGIGIGNKTIDQLVKKIQSQKDLLAAWRYTKVLIIDEISMVDGNLLDKLEQIARRIRKNDDPFGGIQLVLTGDFFQLPPVAKKDEHNVVKFCFESEMWKRCIQKTILLTKVFRQQDNKLIDILNAIRYGELTVDIAKTIRNLNRDIDYADGIAPTELYATRREVELSNVKKLQSLPGDLYEFKAVDNAPERYQAILDSSLMVEKVVALKEDAQVMMLKNKPDVELVNGSLGKVLFFVTESLVVKMKEIYKIVDDEVVMDMRLVSRVIGNPLLKESKEFRQDLNARPLARLERLKILINYAVKISPHKEKFPYVRWTVGKNKYIHELMVPERFPIDIPRENVGLERTQIPLMLCWALSIHKAQGQTIQRLKVDLRRIFEAGQVYVALSRAVTMDTLQVLNFDPGKIRTNERVKDFYKRLETLK
